Values of other authors in patent US9283243B2, “CD36 inhibition to control obesity and insulin sensitivity” (CORNELL UNIVERSITY CORNELL CENTER FOR TECHNOLOGY, …, priority 2010, dated 2016).
At least one structure is not confirmed: it was looked up by name or label, or the drawing left a doubt.

System: CD36
Settings: diabetic ob/ob mice, Liang et al. 2004; cited from earlier work

## CN(CCOc1ccc(CC2SC(=O)NC2=O)cc1)c1ccccn1 (stereo not shown) [rosiglitazone]
  CD36 expression: reduces
